± gives the standard deviation. The list shows a part of the results, in another mix than the full data. Many entries were measured with a wide error.
Tested on: MILI (PIWIL2) piRISC loaded with piRNA #1 (26 nt)
Assay: pre-steady-state target cleavage rate (min^-1); MIWI and MILI are mouse PIWI proteins and EfPiwi is from a freshwater sponge; tags in brackets are library labels; higher = faster piRNA-guided slicing of the target
Conditions: guide: piRNA #1 5'p-UGAGGUAGUAGGUUGUAUAGUAUCCA; auxiliary factor: 500 nM mouse GTSF1
In short: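 Cleave-'n-Seq reactions paired 0.1 nM transcribed, DNA-blocked target RNA library with 1 nM active affinity-purified piRISC holding one synthetic guide, plus or minus 500 nM GTSF1 partner protein, in HEPES–potassium acetate buffer at 33 °C for 0–8 or 0–960 min. After sequencing of uncleaved targets and normalisation to depth and weakly complementary targets, the pre-steady-state cleavage rate was taken from a burst-and-steady-state fit. Three trials were pooled, and k3 was capped at 0.0001 min^-1.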

Row | Sequence | pre-steady-state target cleavage rate
1 | GGAGACGAUACUAUACAUCCUACUACCACA | 0.334 ± 0.021
2 | GGAGACGAUACUAUACAACCUACUACCCA | 0.107 ± 0.024
3 | GGAGACCUAUGAUUACAACCUACUUGGAGA [g7:g17:cont:t1A] | 0.000576 ± 0.0089
4 | GGAGACGAUACUUUACAACGUACUACCUCA | 0.0294 ± 0.0045
5 | GGAGACCUAACUAUACAUCCUACAACCUCA | 0.246 ± 0.033
6 | GGAGUGGAUACAAUACAACCUACAACCUCA | 0.0772 ± 0.01
7 | GGAGACCUAACUAUAGCAACCUACUACCUCA | 0.0973 ± 0.023
8 | GGAGACGAUACUAUACAAGCUUCUACCUCA | 0.0442 ± 0.0052
9 | GGAGACCUAUGAUAACUAACCUACUACCUCA | 0.000803 ± 0.0096
10 | GGAGUGGAUACUAUACAUCCUAGUACCUCA | 0.103 ± 0.019
11 | GGAGACCUAUGAUAUGAACCGACUACCUCA | 0.000382 ± 0.007
12 | GGAGACCUAUGAUAACAACCUACUAGCUGA | 0.000616 ± 0.0087
13 | GGAGACCUAUGAUAACAACCUAGUAGCUCA | 0.000134 ± 0.021
14 | GGAGACGAUACUAUACAACCUACUACGAGA | 0.11 ± 0.034
15 | GGAGACGAAACUAUACAACCUACUACCUCA | 0.172 ± 0.022
16 | GGAGACCUAUGAUAUGAACCUACAACCACA | < 0.0001
17 | GGAGUGGAUACUAUACAACCUUCUUCCUCA | 0.000291 ± 0.0095
18 | GGAGACCAUACUAUACAACCUACUACCCCA | 0.156 ± 0.024
19 | GGAGACCUAUGAAUAGAACCAACUACCUCA | 0.000386 ± 0.01
20 | GGAGACCUUUCUAUACAACCUACUUCCUCA | 0.0321 ± 0.0062

Individual results from the list:
GGAGACCUAUGAUUACAACCUACUUGGAGA [g7:g17:cont:t1A] – pre-steady-state target cleavage rate: 0.000576 ± 0.0089
GGAGUGGAUACUAUACAACCUUCUUCCUCA – pre-steady-state target cleavage rate: 0.000291 ± 0.0095
GGAGACCUAUGAUAACAACCUAGUAGCUCA – pre-steady-state target cleavage rate: 0.000134 ± 0.021

Remaining list, next part:

Row | Sequence | pre-steady-state target cleavage rate
21 | GGAGAGGGAUACUAUACAACCUACUACCUCA | 0.237 ± 0.015
22 | GGAGUGGAUGCUAUACAACCUACUACCUCA | 0.152 ± 0.022
23 | GGAGAGGAUACUAUACAUCCUACUACCUCA | 0.28 ± 0.023
24 | GGAGACGAUACUAUACAACCUUCUACCUGA | 0.00247 ± 0.0037
25 | GGAGACCUAUGAUAUGUACCUACAUACCUCA | 0.000113 ± 0.022
26 | GGAGACCUAUGAAUUCAACCUACAACCUCA | 0.00204 ± 0.0029
27 | GGAGACCAUACGAUACAACCUACUACCUCA | 0.255 ± 0.028
28 | GGAGACCUAUGAAUACAACCUACAUGGAGA [g8:g18:cont:t1A] | 0.000198 ± 0.022
29 | GGAGACCUAUGAUAUGGACCUACUACCUCA | 0.000184 ± 0.02
30 | GGAGACCAAACUAUACAACCUACUACGUCA | 0.042 ± 0.015
31 | GGAGACCUAACUAUACAACCUACUACCUGCA | 0.149 ± 0.034
32 | GGAGUGGAUUGAAUACAACCUACUACCUCA | 0.0713 ± 0.0073
33 | GGAGACCUAUGAUUAAAACCUACUACCUCA | 0.000361 ± 0.0072
34 | GGAGACCUUACUAAAGAACCUACUACCUCA | 0.105 ± 0.011
35 | GGAGACCUUACUAUACAGACCUACUACCUCA | 0.000356 ± 0.018
36 | GGAGACCAUACUAUACAACCACUACCUCA | 0.00277 ± 0.0035
37 | GGAGACGAUACUAUACAACCUACGACCUCA | 0.146 ± 0.019
38 | GGAGACCUAUGAUAUGUAGCAACUACCUCA | 0.000133 ± 0.015
39 | GGAGACGAUACUAUACAGACCUACUACCUCA | 0.00134 ± 0.0045
40 | GGAGACCAUACUAUUCAUCCUACUACCUCA | 0.271 ± 0.019
